This passage reports binding results from paper PMC5682650.

Sequences of proteins named here, by UniProt entry; tags and fusion partners are left off. A change or cut given only in a name is not applied to a line headed by its entry. A line that says so, or that is headed by a name, gives the form on record, which may keep a tag or linker. Residues count along the entry.
UniProt P42224: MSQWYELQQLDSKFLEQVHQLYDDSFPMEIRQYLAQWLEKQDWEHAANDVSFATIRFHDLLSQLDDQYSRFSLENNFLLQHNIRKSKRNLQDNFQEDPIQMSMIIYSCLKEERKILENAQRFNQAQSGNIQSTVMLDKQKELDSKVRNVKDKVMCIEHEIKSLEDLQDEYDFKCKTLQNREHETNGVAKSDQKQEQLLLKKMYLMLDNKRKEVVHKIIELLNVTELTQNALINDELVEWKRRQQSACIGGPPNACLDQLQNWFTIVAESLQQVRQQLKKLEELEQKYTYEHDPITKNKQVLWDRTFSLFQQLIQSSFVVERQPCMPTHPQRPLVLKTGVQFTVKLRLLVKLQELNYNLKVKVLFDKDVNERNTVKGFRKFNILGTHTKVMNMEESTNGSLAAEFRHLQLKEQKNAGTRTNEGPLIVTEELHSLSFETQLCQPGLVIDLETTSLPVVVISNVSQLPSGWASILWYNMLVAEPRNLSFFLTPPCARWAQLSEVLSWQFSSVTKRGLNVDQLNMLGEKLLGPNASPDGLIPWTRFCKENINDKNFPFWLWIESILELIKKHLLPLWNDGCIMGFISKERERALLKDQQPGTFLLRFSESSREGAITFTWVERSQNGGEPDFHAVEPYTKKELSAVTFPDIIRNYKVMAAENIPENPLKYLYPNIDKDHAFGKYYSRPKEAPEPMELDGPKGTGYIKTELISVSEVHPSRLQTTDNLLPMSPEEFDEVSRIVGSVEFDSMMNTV
Flag-tagged STAT1β: residues 1-712 of P42224
Flag-tagged STAT1β^Y701F (P42224-2, form named): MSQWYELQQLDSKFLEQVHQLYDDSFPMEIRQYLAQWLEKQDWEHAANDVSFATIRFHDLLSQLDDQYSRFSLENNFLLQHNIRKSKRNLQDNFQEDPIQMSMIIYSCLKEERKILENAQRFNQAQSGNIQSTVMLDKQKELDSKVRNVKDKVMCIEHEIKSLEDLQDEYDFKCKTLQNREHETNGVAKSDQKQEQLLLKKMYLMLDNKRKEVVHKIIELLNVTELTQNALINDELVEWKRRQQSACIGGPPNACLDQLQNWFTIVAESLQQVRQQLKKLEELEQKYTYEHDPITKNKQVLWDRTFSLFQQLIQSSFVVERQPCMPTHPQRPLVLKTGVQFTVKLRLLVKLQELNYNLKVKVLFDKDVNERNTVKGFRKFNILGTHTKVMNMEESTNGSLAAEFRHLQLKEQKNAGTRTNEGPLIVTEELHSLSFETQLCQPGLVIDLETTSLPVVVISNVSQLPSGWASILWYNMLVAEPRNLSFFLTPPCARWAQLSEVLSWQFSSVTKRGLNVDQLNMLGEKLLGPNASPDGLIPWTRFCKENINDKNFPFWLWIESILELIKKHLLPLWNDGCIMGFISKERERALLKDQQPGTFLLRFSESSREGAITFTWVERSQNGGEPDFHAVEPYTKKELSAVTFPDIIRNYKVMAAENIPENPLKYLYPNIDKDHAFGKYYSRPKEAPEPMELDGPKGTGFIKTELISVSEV

These are yes or no findings as the source states them, for the method shown. In cells and extracts the contact can be indirect. Some entries that bind do so weakly or less than the wild type.

The target of the assay is STAT1α (human (endogenous in EC1 / KYSE150 cells)) (UniProt P42224). Briefly: co-IP; whole-cell extracts of ESCC cells transfected with Flag-tagged STAT1β, with or without IFN-γ stimulation; IP with control IgG, anti-Flag or anti-STAT1α, protein G Plus/A beads, 4 °C overnight; western blot with anti-STAT1α and anti-Flag.

As to “Flag-tagged STAT1β^Y701F (from UniProt P42224-2 1-712)”, the binding result is given as “no binding”.
Under “Flag-tagged STAT1β (from UniProt P42224-2 1-712)” stands “binds”.
